Results reported in US20180313836A1.
Results are given in words; binding and its absence hold for the method and conditions named. In cells and extracts the contact can be indirect. Some binding calls cover weakened binding; strength is not graded here. Where a sequence is shown, tags or fusion partners need not be part of it.

T1: HDAC6
T1 sequence: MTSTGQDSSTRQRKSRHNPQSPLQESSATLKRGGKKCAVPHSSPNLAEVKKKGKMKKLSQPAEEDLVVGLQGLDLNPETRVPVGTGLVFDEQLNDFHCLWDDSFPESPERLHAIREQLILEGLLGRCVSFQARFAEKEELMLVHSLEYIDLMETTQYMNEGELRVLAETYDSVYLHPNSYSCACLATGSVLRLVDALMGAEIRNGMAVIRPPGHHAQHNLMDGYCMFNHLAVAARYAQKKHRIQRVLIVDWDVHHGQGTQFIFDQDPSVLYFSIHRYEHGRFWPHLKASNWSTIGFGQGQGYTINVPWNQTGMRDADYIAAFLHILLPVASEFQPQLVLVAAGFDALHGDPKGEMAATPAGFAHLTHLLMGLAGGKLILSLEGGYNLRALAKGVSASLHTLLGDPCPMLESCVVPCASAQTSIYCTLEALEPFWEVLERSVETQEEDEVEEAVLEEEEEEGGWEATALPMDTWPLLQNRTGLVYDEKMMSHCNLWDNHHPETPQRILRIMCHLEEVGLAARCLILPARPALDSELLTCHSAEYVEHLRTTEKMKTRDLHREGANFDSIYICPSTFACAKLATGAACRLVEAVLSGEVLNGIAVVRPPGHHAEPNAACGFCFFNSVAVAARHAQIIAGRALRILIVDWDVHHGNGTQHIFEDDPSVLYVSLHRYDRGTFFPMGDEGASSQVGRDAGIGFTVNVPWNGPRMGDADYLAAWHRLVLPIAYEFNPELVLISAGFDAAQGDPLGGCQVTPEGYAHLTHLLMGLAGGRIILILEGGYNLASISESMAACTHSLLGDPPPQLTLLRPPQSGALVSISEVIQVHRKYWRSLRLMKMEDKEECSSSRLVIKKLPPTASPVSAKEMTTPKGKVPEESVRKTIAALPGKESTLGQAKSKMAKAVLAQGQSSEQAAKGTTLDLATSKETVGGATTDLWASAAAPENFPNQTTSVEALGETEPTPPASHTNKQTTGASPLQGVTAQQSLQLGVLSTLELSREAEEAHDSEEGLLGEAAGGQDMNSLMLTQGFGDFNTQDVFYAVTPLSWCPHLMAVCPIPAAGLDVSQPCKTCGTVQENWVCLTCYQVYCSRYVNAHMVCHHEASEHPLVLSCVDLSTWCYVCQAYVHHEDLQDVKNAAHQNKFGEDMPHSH


biological target: EEF1A1; test: co-immunoprecipitation from NSC-34 cells expressing V5-tagged synthetase: IP EEF1A1, blot V5

binding | Binder
binds | WT (V5-HARS) (enzyme, not shown: small tags and cut ends) AERAALEELVKLQGERVRGLKQQKASAELIEEEVAKLLKLKAQLGPDESKQKFVLKTPKGTRDYSPRQMAVREKVFDVIIRCFKRHGAEVIDTPVFELKETLMGKYGEDSKLIYDLKDQGGELLSLRYDLTVPFARYLAMNKLTNIKRYHIAKVYRRDNPAMTRGRYREFYQCDFDIAGNFDPMIPDAECLKIMCEILSSLQIGDFLVKVNDRRILDGMFAICGVSDSKFRTICSSVDKLDKVSWEEVKNEMVGEKGLAPEVADRIGDYVQQHGGVSLVEQLLQDPKLSQNKQALEGLGDLKLLFEYLTLFGIDDKISFDLSLARGLDYYTGVIYEAVLLQTPAQAGEEPLGVGSVAAGGRYDGLVGMFDPKGRKVPCVGLSIGVERIFSIVEQRLEALEEKIRTTETQVLVASAQKKLLEERLKLVSELWDAGIKAELLYKKNPKLLNQLQYCEEAGIPLVAIIGEQELKDGVIKLRSVTSREEVDVRREDLVEEIKRRTGQPLCIC
binds | P134H (V5-HARS) (enzyme, not shown: small tags and cut ends) AERAALEELVKLQGERVRGLKQQKASAELIEEEVAKLLKLKAQLGPDESKQKFVLKTPKGTRDYSPRQMAVREKVFDVIIRCFKRHGAEVIDTPVFELKETLMGKYGEDSKLIYDLKDQGGELLSLRYDLTVHFARYLAMNKLTNIKRYHIAKVYRRDNPAMTRGRYREFYQCDFDIAGNFDPMIPDAECLKIMCEILSSLQIGDFLVKVNDRRILDGMFAICGVSDSKFRTICSSVDKLDKVSWEEVKNEMVGEKGLAPEVADRIGDYVQQHGGVSLVEQLLQDPKLSQNKQALEGLGDLKLLFEYLTLFGIDDKISFDLSLARGLDYYTGVIYEAVLLQTPAQAGEEPLGVGSVAAGGRYDGLVGMFDPKGRKVPCVGLSIGVERIFSIVEQRLEALEEKIRTTETQVLVASAQKKLLEERLKLVSELWDAGIKAELLYKKNPKLLNQLQYCEEAGIPLVAIIGEQELKDGVIKLRSVTSREEVDVRREDLVEEIKRRTGQPLCIC
binds | D175E (V5-HARS) (enzyme, not shown: small tags and cut ends) AERAALEELVKLQGERVRGLKQQKASAELIEEEVAKLLKLKAQLGPDESKQKFVLKTPKGTRDYSPRQMAVREKVFDVIIRCFKRHGAEVIDTPVFELKETLMGKYGEDSKLIYDLKDQGGELLSLRYDLTVPFARYLAMNKLTNIKRYHIAKVYRRDNPAMTRGRYREFYQCEFDIAGNFDPMIPDAECLKIMCEILSSLQIGDFLVKVNDRRILDGMFAICGVSDSKFRTICSSVDKLDKVSWEEVKNEMVGEKGLAPEVADRIGDYVQQHGGVSLVEQLLQDPKLSQNKQALEGLGDLKLLFEYLTLFGIDDKISFDLSLARGLDYYTGVIYEAVLLQTPAQAGEEPLGVGSVAAGGRYDGLVGMFDPKGRKVPCVGLSIGVERIFSIVEQRLEALEEKIRTTETQVLVASAQKKLLEERLKLVSELWDAGIKAELLYKKNPKLLNQLQYCEEAGIPLVAIIGEQELKDGVIKLRSVTSREEVDVRREDLVEEIKRRTGQPLCIC
binds | E279D (GARS-V5) (enzyme, not shown: small tags and cut ends) MDGAGAEEVLAPLRLAVRQQGDLVRKLKEDKAPQVDVDKAVAELKARKRVLEAKELALQPKDDIVDRAKMEDTLKRRFFYDQAFAIYGGVSGLYDFGPVGCALKNNIIQTWRQHFIQEEQILEIDCTMLTPEPVLKTSGHVDKFADFMVKDVKNGECFRADHLLKAHLQKLMSDKKCSVEKKSEMESVLAQLDNYGQQELADLFVNYNVKSPITGNDLSPPVSFNLMFKTFIGPGGNMPGYLRPETAQGIFLNFKRLLEFNQGKLPFAAAQIGNSFRNDISPRSGLIRVREFTMAEIEHFVDPSEKDHPKFQNVADLHLYLYSAKAQVSGQSARKMRLGDAVEQGVINNTVLGYFIGRIYLYLTKVGISPDKLRFRQHMENEMAHYACDCWDAESKTSYGWIEIVGCADRSCYDLSCHARATKVPLVAEKPLKEPKTVNVVQFEPSKGAIGKAYKKDAKLVMEYLAICDECYITEMEMLLNEKGEFTIETEGKTFQLTKDMINVKRFQKTLYVEEVVPNVIEPSFGLGRIMYTVFEHTFHVREGDEQRTFFSFPAVVAPFKCSVLPLSQNQEFMPFVKELSEALTRHGVSHKVDDSSGSIGRRYARTDEIGVAFGVTIDFDTVNKTPHTATLRDRDSMRQIRAEISELPSIVQDLANGNITWADVEARYPLFEGQETGKKETIEE

biological target: T1, HDAC6; test: co-immunoprecipitation from NSC-34 cells expressing MFN2-V5: IP HDAC6, blot V5

binding | Binder
binds | WT (MFN2-V5) (protein, not shown: small tags and cut ends) MSLLFSRCNSIVTVKKNKRHMAEVNASPLKHFVTAKKKINGIFEQLGAYIQESATFLEDTYRNAELDPVTTEEQVLDVKGYLSKVRGISEVLARRHMKVAFFGRTSNGKSTVINAMLWDKVLPSGIGHTTNCFLRVEGTDGHEAFLLTEGSEEKRSAKTVNQLAHALHQDKQLHAGSLVSVMWPNSKCPLLKDDLVLMDSPGIDVTTELDSWIDKFCLDADVFVLVANSESTLMQTEKHFFHKVSERLSRPNIFILNNRWDASASEPEYMEEVRRQHMERCTSFLVDELGVVDRSQAGDRIFFVSAKEVLNARIQKAQGMPEGGGALAEGFQVRMFEFQNFERRFEECISQSAVKTKFEQHTVRAKQIAEAVRLIMDSLHMAAREQQVYCEEMREERQDRLKFIDKQLELLAQDYKLRIKQITEEVERQVSTAMAEEIRRLSVLVDDYQMDFHPSPVVLKVYKNELHRHIEEGLGRNMSDRCSTAITNSLQTMQQDMIDGLKPLLPVSVRSQIDMLVPRQCFSLNYDLNCDKLCADFQEDIEFHFSLGWTMLVNRFLGPKNSRRALMGYNDQVQRPIPLTPANPSMPPLPQGSLTQEEFMVSMVTGLASLTSRTSMGILVVGGVVWKAVGWRLIALSFGLYGLLYVYERLTWTTKAKERAFKRQFVEHASEKLQLVISYTGSNCSHQVQQELSGTFAHLCQQVDVTRENLEQEIAAMNKKIEVLDSLQSKAKLLRNKAGWLDSELNMFTHQYLQPSR
binds | R280H (MFN2-V5) (protein, not shown: small tags and cut ends) MSLLFSRCNSIVTVKKNKRHMAEVNASPLKHFVTAKKKINGIFEQLGAYIQESATFLEDTYRNAELDPVTTEEQVLDVKGYLSKVRGISEVLARRHMKVAFFGRTSNGKSTVINAMLWDKVLPSGIGHTTNCFLRVEGTDGHEAFLLTEGSEEKRSAKTVNQLAHALHQDKQLHAGSLVSVMWPNSKCPLLKDDLVLMDSPGIDVTTELDSWIDKFCLDADVFVLVANSESTLMQTEKHFFHKVSERLSRPNIFILNNRWDASASEPEYMEEVRRQHMEHCTSFLVDELGVVDRSQAGDRIFFVSAKEVLNARIQKAQGMPEGGGALAEGFQVRMFEFQNFERRFEECISQSAVKTKFEQHTVRAKQIAEAVRLIMDSLHMAAREQQVYCEEMREERQDRLKFIDKQLELLAQDYKLRIKQITEEVERQVSTAMAEEIRRLSVLVDDYQMDFHPSPVVLKVYKNELHRHIEEGLGRNMSDRCSTAITNSLQTMQQDMIDGLKPLLPVSVRSQIDMLVPRQCFSLNYDLNCDKLCADFQEDIEFHFSLGWTMLVNRFLGPKNSRRALMGYNDQVQRPIPLTPANPSMPPLPQGSLTQEEFMVSMVTGLASLTSRTSMGILVVGGVVWKAVGWRLIALSFGLYGLLYVYERLTWTTKAKERAFKRQFVEHASEKLQLVISYTGSNCSHQVQQELSGTFAHLCQQVDVTRENLEQEIAAMNKKIEVLDSLQSKAKLLRNKAGWLDSELNMFTHQYLQPSR
